Measurements: publication PMC12803513
Results are given in words; binding and its absence hold for the method and conditions named. In cells and extracts the contact can be indirect.

Molecular target: human Tau (Tubulin-associated unit) (human)
Assay: co-IP; conditions, lysate and precipitated protein not told; no data shown

binding: no binding
B1: Prefoldin 5 (protein, UniProt Q9VCZ8 1-168)
chain: MAATPSAPAKSEMIDLTKLSPEQLIQIKQEFEQEITNVQDSLSTLHGCQAKYAGSKEALGTFQPNWENRQILVPLTSSMYVPGRVKDLNRFVIDIGTGYYIEKDLEGSKDYFKRRVEYVQEQIEKIEKIHLQKTRFYNSVMSVLEMKQAAAAKLQSQQQSQPAVTQSS
